Laboratory results: PubChem BioAssay AID686937 (Drosophila RNAi Screening Center, 2013)
The deposit covers about 23,000 reagents; this is a random part of those with a known target gene and a result. 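Reduced-secretion tags in replicate 1 do not always agree with the z-scores; no criterion for assigning the tags was given.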 A plus sign joins genes that one reagent is predicted to hit. Not all columns of the deposit are shown. Not given: the amount of reagent.

Screen: 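Genes whose loss weakens secretory pathway function in fly cells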 (primary screen)
System: Drosophila S2 cells expressing secreted horseradish peroxidase
Knock-down reagent: long dsRNA against Drosophila genes
Time to read-out: about 5.5 days (5 days dsRNA, then 12 h reporter induction)
Challenge: reporter expression induced after 5 days of dsRNA, read 12 h later; inducer not stated
Measured: 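After 5 days of dsRNA and 12 h of reporter induction, medium peroxidase read by chemiluminescence and scored as per-plate z-score; higher values mean more reporter released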
Direction: z-score: higher = more reporter secreted into medium

CG31883 [DRSC02561] showed z-score, replicate 1 = 0.12.
After knock-down of CG14232 [DRSC19588], the screen gave z-score, replicate 1 = 0.34.
Against Trpgamma [DRSC03626] the deposit lists z-score, replicate 1 = 0.54.
For CG13603 [DRSC14606], the entry reads z-score, replicate 1 = 0.19.
Depletion of CG14892 [DRSC15014] gave: z-score, replicate 1 = -0.71.
Silencing of plum [DRSC16054] gave: z-score, replicate 1 = 0.34.
Silencing of CG32809 [DRSC18507] resulted in: z-score, replicate 1 = -0.86.
Against CG32809 [DRSC18592], the entry reads z-score, replicate 1 = 0.13.
Knock-down of mal [DRSC20581] came out at: z-score, replicate 1 = 0.28.
rogdi [DRSC10906] gave z-score, replicate 1 = 0.27.
Depletion of CG13559 [DRSC04197] gave: z-score, replicate 1 = 0.06.
Silencing of Dif [DRSC03316] came out at: z-score, replicate 1 = -0.09.
Gel [DRSC12350] gave z-score, replicate 1 = 0.09.
Silencing of CG17803 [DRSC15275] gave: z-score, replicate 1 = 0.5.
Against CG17803 [DRSC22811] the deposit lists z-score, replicate 1 = 0.62.
With knock-down of Rad60 [DRSC15580], the record shows z-score, replicate 1 = 0.27.
Depletion of CG34171 [DRSC01637] resulted in: z-score, replicate 1 = -0.07.
metro [DRSC06341] scored z-score, replicate 1 = 0.42.
metro [DRSC06725] showed z-score, replicate 1 = -0.15.
Knock-down of mfr [DRSC10543] resulted in: z-score, replicate 1 = 0.2.
Silencing of Cul6 [DRSC09830] gave: z-score, replicate 1 = 0.25.
CG17786 [DRSC15270] gave z-score, replicate 1 = 0.5.
CG32628 (retired record) [DRSC19405] scored z-score, replicate 1 = 0.2.
For CG17698 [DRSC11907], the values are z-score, replicate 1 = 0.1.
Silencing of Fum4 [DRSC22577] came out at: z-score, replicate 1 = 0.23.
CG31875 [DRSC21975] scored z-score, replicate 1 = 0.38.
Against CG30039 [DRSC21794], the entry reads z-score, replicate 1 = 0.01.
With knock-down of hyx [DRSC14462], the screen gave z-score, replicate 1 = -1.62.
After knock-down of orb2 + CG43783 [DRSC10540] the results were z-score, replicate 1 = 0.
For orb2 + CG43783 [DRSC10541], the values are z-score, replicate 1 = 0.34.
Depletion of orb2 + CG43783 [DRSC10542] resulted in: z-score, replicate 1 = 0.11.
CG14342 [DRSC00372] gave z-score, replicate 1 = 0.3.
After knock-down of cas [DRSC12373], the record shows z-score, replicate 1 = 0.19.
After knock-down of VhaM9.7-c [DRSC08204], the record shows z-score, replicate 1 = 0.33.
Silencing of CG32269 + CG32270 [DRSC08195] came out at: z-score, replicate 1 = 0.28.
RN-tre [DRSC07521] scored z-score, replicate 1 = 0.08.
For CG13887 [DRSC08357], the values are z-score, replicate 1 = 0.46.
For CG14422 [DRSC17919], the entry reads z-score, replicate 1 = 0.37.
Knock-down of CG2267 [DRSC15435] came out at: z-score, replicate 1 = 0.23.
With knock-down of Cwc25 [DRSC00545], the record shows z-score, replicate 1 = -1.2.

No new results follow: entries from further up.
CG31883 [DRSC02561] → z-score, replicate 1: 0.12
CG14232 [DRSC19588] → z-score, replicate 1: 0.34
Trpgamma [DRSC03626] → z-score, replicate 1: 0.54
CG13603 [DRSC14606] → z-score, replicate 1: 0.19
CG14892 [DRSC15014] → z-score, replicate 1: -0.71
